The source of these data is article doi:10.1101/2024.01.04.574163.

Protein sequences, listed by entry. Tags and fused reporters are not part of them.
UniProt P40958: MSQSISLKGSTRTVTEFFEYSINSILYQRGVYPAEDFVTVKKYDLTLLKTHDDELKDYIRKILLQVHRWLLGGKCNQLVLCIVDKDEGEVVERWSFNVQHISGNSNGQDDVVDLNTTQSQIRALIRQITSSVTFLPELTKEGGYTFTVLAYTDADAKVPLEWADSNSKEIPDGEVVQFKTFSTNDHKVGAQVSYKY
UniProt P40460: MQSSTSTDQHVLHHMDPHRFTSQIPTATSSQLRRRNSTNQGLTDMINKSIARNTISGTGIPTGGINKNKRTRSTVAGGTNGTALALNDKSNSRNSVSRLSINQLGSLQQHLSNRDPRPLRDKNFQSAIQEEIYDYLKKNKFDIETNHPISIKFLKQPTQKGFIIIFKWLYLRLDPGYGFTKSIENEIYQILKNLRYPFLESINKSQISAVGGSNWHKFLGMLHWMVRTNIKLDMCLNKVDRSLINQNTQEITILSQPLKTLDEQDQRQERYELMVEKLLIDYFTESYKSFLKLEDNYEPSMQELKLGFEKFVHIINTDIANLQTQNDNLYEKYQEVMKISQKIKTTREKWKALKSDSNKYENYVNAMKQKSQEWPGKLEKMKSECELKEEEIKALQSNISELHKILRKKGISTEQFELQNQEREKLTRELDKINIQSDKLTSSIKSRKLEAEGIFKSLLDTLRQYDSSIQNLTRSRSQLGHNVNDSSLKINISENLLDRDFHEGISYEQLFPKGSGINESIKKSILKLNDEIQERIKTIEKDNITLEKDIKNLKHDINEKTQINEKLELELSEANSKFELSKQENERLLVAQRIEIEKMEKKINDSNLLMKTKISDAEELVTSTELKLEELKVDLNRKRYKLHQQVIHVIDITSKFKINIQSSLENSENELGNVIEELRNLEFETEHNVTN
UniProt P38903: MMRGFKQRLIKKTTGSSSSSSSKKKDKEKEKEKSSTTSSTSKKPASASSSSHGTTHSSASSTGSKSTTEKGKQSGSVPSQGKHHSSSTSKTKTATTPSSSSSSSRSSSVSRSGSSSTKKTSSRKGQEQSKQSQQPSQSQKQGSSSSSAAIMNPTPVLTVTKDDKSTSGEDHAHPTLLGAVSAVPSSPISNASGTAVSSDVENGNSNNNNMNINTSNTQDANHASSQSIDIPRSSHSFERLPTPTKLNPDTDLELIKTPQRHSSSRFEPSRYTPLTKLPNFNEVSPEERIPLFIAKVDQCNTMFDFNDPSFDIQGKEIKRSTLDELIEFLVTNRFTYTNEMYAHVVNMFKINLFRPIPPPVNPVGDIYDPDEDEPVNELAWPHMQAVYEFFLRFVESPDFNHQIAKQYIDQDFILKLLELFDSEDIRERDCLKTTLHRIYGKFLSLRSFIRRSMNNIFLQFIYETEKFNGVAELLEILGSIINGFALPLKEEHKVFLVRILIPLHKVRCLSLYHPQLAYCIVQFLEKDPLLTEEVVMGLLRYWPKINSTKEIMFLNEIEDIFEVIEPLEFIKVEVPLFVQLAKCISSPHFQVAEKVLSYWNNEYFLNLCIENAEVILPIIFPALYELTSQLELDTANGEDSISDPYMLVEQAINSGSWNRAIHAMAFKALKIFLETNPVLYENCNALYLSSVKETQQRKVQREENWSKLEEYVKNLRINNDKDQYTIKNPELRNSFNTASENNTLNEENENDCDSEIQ
UniProt P09733: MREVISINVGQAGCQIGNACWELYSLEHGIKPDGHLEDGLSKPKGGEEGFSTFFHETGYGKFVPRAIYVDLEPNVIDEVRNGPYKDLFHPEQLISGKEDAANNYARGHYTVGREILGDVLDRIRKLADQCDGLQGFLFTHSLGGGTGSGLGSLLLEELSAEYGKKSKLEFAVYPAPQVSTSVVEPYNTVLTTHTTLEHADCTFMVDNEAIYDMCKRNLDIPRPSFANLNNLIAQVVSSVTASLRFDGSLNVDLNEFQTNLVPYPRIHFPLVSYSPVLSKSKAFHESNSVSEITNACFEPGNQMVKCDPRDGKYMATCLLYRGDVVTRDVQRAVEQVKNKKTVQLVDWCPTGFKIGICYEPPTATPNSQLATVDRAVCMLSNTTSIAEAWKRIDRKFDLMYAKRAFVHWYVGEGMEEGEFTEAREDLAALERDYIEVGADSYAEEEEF
UniProt P02557: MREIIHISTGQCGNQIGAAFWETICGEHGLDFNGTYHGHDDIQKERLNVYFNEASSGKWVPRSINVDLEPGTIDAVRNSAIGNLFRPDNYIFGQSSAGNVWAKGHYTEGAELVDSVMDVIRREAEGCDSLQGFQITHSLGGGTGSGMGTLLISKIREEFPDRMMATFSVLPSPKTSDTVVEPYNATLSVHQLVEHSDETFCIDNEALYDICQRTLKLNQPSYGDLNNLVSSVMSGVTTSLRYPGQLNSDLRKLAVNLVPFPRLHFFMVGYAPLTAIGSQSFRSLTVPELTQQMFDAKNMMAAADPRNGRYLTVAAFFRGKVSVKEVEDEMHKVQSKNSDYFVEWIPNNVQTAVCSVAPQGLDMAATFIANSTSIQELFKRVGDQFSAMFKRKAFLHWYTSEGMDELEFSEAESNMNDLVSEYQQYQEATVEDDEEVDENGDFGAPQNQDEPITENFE
UniProt P09734: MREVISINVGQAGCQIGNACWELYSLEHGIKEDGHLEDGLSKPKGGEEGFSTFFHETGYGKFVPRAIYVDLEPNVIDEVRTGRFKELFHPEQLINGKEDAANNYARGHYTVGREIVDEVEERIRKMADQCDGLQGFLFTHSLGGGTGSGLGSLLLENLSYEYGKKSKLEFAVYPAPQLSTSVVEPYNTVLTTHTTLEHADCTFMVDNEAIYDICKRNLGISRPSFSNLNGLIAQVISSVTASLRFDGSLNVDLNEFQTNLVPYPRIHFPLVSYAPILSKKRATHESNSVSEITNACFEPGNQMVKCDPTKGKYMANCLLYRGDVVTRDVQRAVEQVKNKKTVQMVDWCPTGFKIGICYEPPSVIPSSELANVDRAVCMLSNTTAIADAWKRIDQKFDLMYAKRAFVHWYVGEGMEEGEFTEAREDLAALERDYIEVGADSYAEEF

Holding throughout (test): affinity purification with mass spectrometry
The target of assay [1] is Mad2-FLAG (S. cerevisiae (endogenous in SK1 strains)) (UniProt P40958).
In assay [2] the target is T1, Mad3-FLAG (S. cerevisiae (endogenous in SK1 strains)) (UniProt P47074).
T1 sequence: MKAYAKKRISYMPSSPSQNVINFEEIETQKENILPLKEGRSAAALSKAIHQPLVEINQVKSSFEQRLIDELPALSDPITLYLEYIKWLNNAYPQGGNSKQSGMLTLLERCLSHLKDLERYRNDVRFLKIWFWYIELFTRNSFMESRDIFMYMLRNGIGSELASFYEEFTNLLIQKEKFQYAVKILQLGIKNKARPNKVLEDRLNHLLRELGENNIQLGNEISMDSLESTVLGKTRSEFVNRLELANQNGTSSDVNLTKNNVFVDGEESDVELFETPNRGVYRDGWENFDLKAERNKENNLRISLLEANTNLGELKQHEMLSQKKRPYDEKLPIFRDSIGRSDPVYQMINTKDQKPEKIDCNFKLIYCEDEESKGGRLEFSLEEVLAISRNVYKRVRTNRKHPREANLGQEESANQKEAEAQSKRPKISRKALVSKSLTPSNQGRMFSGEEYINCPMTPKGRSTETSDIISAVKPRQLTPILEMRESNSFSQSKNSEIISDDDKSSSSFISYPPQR

Assay [3] deals with T1, Mad3-FLAG (S. cerevisiae (endogenous in SK1 strains)). This is another data set of the same source.

Where two headings read alike, the source gives them in different places. Results are given in words; binding and its absence hold for the method and conditions named. In cells and extracts the contact can be indirect. These calls come from enrichment with a bait or labelling near it, and not all partners need be listed. For some of these results: A no says only that the protein was not detected with the bait. For some of these results: Where a sequence is shown, tags or fusion partners need not be part of it.

For the molecule Ndc80 (from UniProt P40460 1-691), the binding result in assay [1] is reported as “binds”; in assay [2], “no binding”.

Regarding “Rts1, a subunit of PP2A-B56 (from UniProt P38903 1-757)”, the binding result in assay [2] was “binds”.

For Tub1 (from UniProt P09733 1-447), the binding entry in assay [2] is recorded as “binds”.

Regarding Tub2 (from UniProt P02557 1-457), the binding entry in assay [2] is “binds”.

For the molecule Tub3 (from UniProt P09734 1-445), the binding result in assay [2] is “binds”.

B1: Ptc7 (enzyme, UniProt P38797 40-343)
chain: YQSNNSHGDAYSSGSQSGPFTYKTAVAFQPKDRDDLIYQKLKDSIRSPTGEDNYFVTSNNVHDIFAGVADGVGGWAEHGYDSSAISRELCKKMDEISTALAENSSKETLLTPKKIIGAAYAKIRDEKVVKVGGTTAIVAHFPSNGKLEVANLGDSWCGVFRDSKLVFQTKFQTVGFNAPYQLSIIPEEMLKEAERRGSKYILNTPRDADEYSFQLKKKDIIILATDGVTDNIATDDIELFLKDNAARTNDELQLLSQKFVDNVVSLSKDPNYPSVFAQEISKLTGKNYSGGKEDDITVVVVRVD
As for B1, the binding entry in assay [2] and in assay [3] was “binds” each time.

B2: Bub3 (protein, UniProt P26449 1-341)
chain: MQIVQIEQAPKDYISDIKIIPSKSLLLITSWDGSLTVYKFDIQAKNVDLLQSLRYKHPLLCCNFIDNTDLQIYVGTVQGEILKVDLIGSPSFQALTNNEANLGICRICKYGDDKLIAASWDGLIEVIDPRNYGDGVIAVKNLNSNNTKVKNKIFTMDTNSSRLIVGMNNSQVQWFRLPLCEDDNGTIEESGLKYQIRDVALLPKEQEGYACSSIDGRVAVEFFDDQGDDYNSSKRFAFRCHRLNLKDTNLAYPVNSIEFSPRHKFLYTAGSDGIISCWNLQTRKKIKNFAKFNEDSVVKIACSDNILCLATSDDTFKTNAAIDQTIELNASSIYIIFDYEN
For B2, in assay [2], the binding entry is listed as “binds”.

B3: Ptc3 (enzyme, UniProt P34221 1-468)
chain: MGQILSNPIIDKEHHSGTDCLTAFGLCAMQGWRMSMEDAHIVEPNLLAESDEEHLAFYGIFDGHGGSSVAEFCGSKMISILKKQESFKSGMLEQCLIDTFLATDVELLKDEKLKDDHSGCTATVILVSQLKKLLICANSGDSRTVLSTGGNSKAMSFDHKPTLLSEKSRIVAADGFVEMDRVNGNLALSRAIGDFEFKSNTKLGPHEQVVTCVPDIICHNLNYDEDEFVILACDGIWDCLTSQECVDLVHYGISQGNMTLSDISSRIVDVCCSPTTEGSGIGCDNMSISIVALLKENESESQWFERMRSKNYNIQTSFVQRRKSIFDFHDFSDDDNEVFAITTKKLQDRLNRSKDNDDMEIDDLDTELGSSATPSKLSGEDRTGPIDLFSLEALLEAGIQIRQRPSSDSDGNTSYFHGASLSDMLASLSNAAAGETEPNDADDNDDNDGEENGKNENAKKGSKIEEIE
With B3, the binding result in assay [2] is reported as “binds”.
